Data reported in patent US9920136B2, “Posaconazole immunoassays” (ARK Diagnostics, Inc., priority 2013, dated 2018).
At least one compound was matched to its structure with a doubt left.

Test system: Ab15421 (rabbit polyclonal antibody to posaconazole)
Assay: Specificity of the immunoassay: cross-reactivity to antifungal triazoles
Type: binding
Conditions: Ab15421 with POS-IV G6PDH
From the text: Antibodies obtained using any of the disclosed techniques are screened or purified not only for their ability to react with posaconazole, but for a low cross-reactivity with potential interfering substances. “Cross-reactivity” may be determined in a quantitative immunoassay by establishing a standard curve using known dilutions of the target analyte, posaconazole. The standard curve is then used to calculate the apparent concentration of the interfering substance present in various known amounts in samples assayed under similar condition. The cross-reactivity can be calculated as the apparent concentration divided by the actual concentration multiplied by 100. A certain immunoassay for determining cross-reactivity is a homogeneous enzyme immunoassay using a wild type G6PDH as described in U.S. Pat. No. 3,817,837 or mutant G6PDH engineered to contain a cysteine per subunit as described in U.S. Pat. Nos. 6,033,890, 6,090,567 and 6,455,288. Furthermore, the cross-reactivity can be determined in the same type of immunoassay in which the antibody will ultimately be used. […]
The assay was calibrated as described in Example 8 using Enzyme Conjugate Reagent NB051:154 containing conjugate POS-IV G6PDH and Antibody Reagent NB051:154 containing Ab15421. […] The samples were quantified from the calibration curve generated.

## CCC(C)n1ncn(-c2ccc(N3CCN(c4ccc(OCC5COC(Cn6cncn6)(c6ccc(Cl)cc6Cl)O5)cc4)CC3)cc2)c1=O (centres unmarked) [Itraconazole]
Human serum samples, 10 μg/mL
  Cross-reaction of Ab15421 with other azole antifungals (in words): did not crossreact
Triazole 20 μg/ml added to Posaconazole 10 μg/ml vs Posaconazole 10 μg/ml control, human serum
  Cross-reactivity (%): <0.01%
